The record followed here is the supplement of paper PMC12009310.

Structures can show the parent of a compound that is named as a salt. ± gives the standard deviation of the averaged measurements. The list shows a part of the results. Plates or batches differ in their baseline, so values are only roughly comparable.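 The cells are a mouse kidney inner medullary collecting duct line, silenced either for the ciliary gene Rpgrip1l or with a non-targeting control siRNA.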

In this assay the test system is mIMCD3. The assay is described as follows: robust z score of cilia incidence (% cells with single cilium) vs plate controls; higher = more ciliated cells (rescue of cilia loss). Conditions: 10 µM; 48 h; siRNA: siRpgrip1l.
Regarding `Cc1[nH]c(/C=C2\C(=O)Nc3ccc(S(=O)(=O)Cc4c(Cl)cccc4Cl)cc32)c(C)c1C(=O)N1CCC[C@@H]1CN1CCCC1`, the “robust z score of cilia incidence” value is -12.8 ± 3.1.

For `CCCn1c(=O)c(C)cn2nc(N)nc12`, the “robust z score of cilia incidence” value is -27.8 ± 25.

As to `Cc1cc(C)cc(C(=O)N(C)[C@H](Cc2ccc(-c3ccccc3)cc2)C(=O)N[C@@H](Cc2c[nH]c3ccccc23)C(=O)O)c1`, the “robust z score of cilia incidence” value is -118 ± 100.

Turning to `CCc1c2c(nc3ccc(OC(=O)N4CCC(N5CCCCC5)CC4)cc13)-c1cc3c(c(=O)n1C2)COC(=O)[C@]3(O)CC`, the “robust z score of cilia incidence” value was -15 ± 2.6.

Consider `O=c1[nH]c2cc(C(F)(F)F)c(N3CCOCC3)cc2n(CP(=O)(O)O)c1=O`, for which the “robust z score of cilia incidence” value is -8.13 ± 5.7.

Turning to `O=C1N(c2ccccc2)c2ccccc2C1(Cc1ccncc1)Cc1ccncc1` [Linopirdine dihydrochloride], the “robust z score of cilia incidence” value is -10.9 ± 5.2.

For the compound `C[C@@H](NCc1cc(Br)cc2[nH]c(=O)c(=O)[nH]c12)P(=O)(O)O`, the “robust z score of cilia incidence” value is -158 ± 120.

Consider `Cl/C(=C\n1cncn1)c1ccc(Cl)cc1Cl` [Loreclezole hydrochloride], for which the “robust z score of cilia incidence” value is -7.13 ± 4.7.

For the compound `O=C(NCCNCC(O)COc1ccc(O)cc1)N1CCOCC1` (centres undefined) [Xamoterol hemifumarate], the “robust z score of cilia incidence” value is -8.8 ± 3.8.

On to `COc1ccc(Cl)cc1NC(=O)Nc1cc(C)nc2ccccc12`, for which the “robust z score of cilia incidence” value was -23.3 ± 2.8.

Take `Nc1nc2c(nc(Br)n2[C@@H]2O[C@@H]3COP(=O)(O)O[C@H]3[C@H]2O)c(=O)[nH]1` [8-Bromo-cGMP, sodium salt]: the “robust z score of cilia incidence” value was -15.5 ± 0.32.

Turning to `CN(C)C(=O)C(=O)c1cn(C)c2cc(Cl)c(C(=O)N3CCC(Cc4ccc(F)cc4)CC3)cc12`, the “robust z score of cilia incidence” value is -24.8 ± 24.

With `CSc1cc2c(cc1C(F)(F)F)N(C(=O)Nc1cccnc1)CC2`, the “robust z score of cilia incidence” value was -5.84 ± 1.4.

Take `N#C/C(=C\c1ccc(O)c(O)c1)C(=O)NCCCc1ccccc1`: the “robust z score of cilia incidence” value was -9.64 ± 7.3.

In the case of `Nc1c(S(=O)(=O)O)cc(Nc2cccc3ccccc23)c2c1C(=O)c1ccccc1C2=O`, the “robust z score of cilia incidence” value is -46.8 ± 7.4.

Regarding `CC(=O)OCCNC(=O)c1cccnc1` [N-[2-(Acetoxy)ethyl]-3-pyridinecarboxamide], the “robust z score of cilia incidence” value was -7.42 ± 4.

With `Cc1ccccc1N=Nc1ccc(NC(=O)c2ccnn2C)c(C)c1`, the “robust z score of cilia incidence” value is -14.2 ± 4.4.

Regarding `NCCc1c[nH]cn1` [Histamine dihydrochloride], the “robust z score of cilia incidence” value was -16.5 ± 5.9.

Regarding `CCOc1ccccc1OC(c1ccccc1)C1CNCCO1` (centres undefined) [Reboxetine mesylate], the “robust z score of cilia incidence” value was -15.7 ± 15.

Turning to `CCC(=O)OCN1C(=O)C=CC1=O`, the “robust z score of cilia incidence” value is -8.14 ± 8.4.

With `C[C@H](NC[C@H](O)CP(=O)(O)CC1CCCCC1)c1ccc(Cl)c(Cl)c1`, the “robust z score of cilia incidence” value was -16.1 ± 2.3.

With `O=C(O)CN1C(=O)c2cccc3cccc(c23)C1=O` [Alrestatin], the “robust z score of cilia incidence” value was -5.75 ± 6.7.

Regarding `CC1CCN(CCCC(=O)c2ccc(F)cc2)CC1` [Melperone hydrochloride], the “robust z score of cilia incidence” value was -19.3 ± 4.4.

With `CC(C)NCC(O)COc1ccc(CCOCC2CC2)cc1` (centres undefined) [Betaxolol hydrochloride], the “robust z score of cilia incidence” value was -13.6 ± 3.2.

As for `Nc1nc2c(ncn2COCCO)c(=O)[nH]1` [Acyclovir], the “robust z score of cilia incidence” value is -18.9 ± 1.9.

In the case of `Cc1noc(NS(=O)(=O)c2cccc3c(N(C)C)cccc23)c1C`, the “robust z score of cilia incidence” value is -159 ± 110.

Take `CCN(CC)CC1CCCCN1CC(=O)N1c2ccccc2C(=O)Nc2cccnc21` (centres undefined): the “robust z score of cilia incidence” value is -18.4 ± 1.2.

For the compound `N[C@@H](C(=O)O)c1ccc(O)c(C(=O)O)c1` [(R)-3-Carboxy-4-hydroxyphenylglycine], the “robust z score of cilia incidence” value is -3.09 ± 0.14.

Turning to `c1cc2c3c(c1)c1c(n3CCNC2)CCCC1` [WAY 629 hydrochloride], the “robust z score of cilia incidence” value was -18.7 ± 16.

For the compound `O=c1c(-c2ccc(O)cc2)coc2cc(O)cc(O)c12` [Genistein], the “robust z score of cilia incidence” value is -24.2 ± 1.8.

`C[C@@]1(O)[C@H](O)[C@@H](CO)O[C@H]1n1cnc2c(NC3CCCC3)nc(Cl)nc21`: the “robust z score of cilia incidence” value is -9.45 ± 5.7.

With `CC(/C=C/c1cccc(Oc2ccc(F)cc2)c1)N(O)C(N)=O` (centres undefined), the “robust z score of cilia incidence” value is -16.1 ± 5.7.

Regarding `Oc1ccc(/C=C/c2cc(O)cc(O)c2)cc1` [Resveratrol], the “robust z score of cilia incidence” value is -24.2 ± 7.

Consider `c1cc2c(cc1C1CCCCC1)c1c3n2CCNC3CCC1` (centres undefined) [Tetrindole mesylate], for which the “robust z score of cilia incidence” value was -39.9 ± 2.3.

Consider `O=C(O)C1(C(=O)O)CCC1.[NH2-].[NH2-].[Pt+2]` [Carboplatin], for which the “robust z score of cilia incidence” value was -9.39 ± 0.23.

For `OC(CN1CCC(Cc2ccc(F)cc2)CC1)c1ccc(Cl)cc1` (centres undefined) [Eliprodil], the “robust z score of cilia incidence” value was -27.4 ± 16.

Take `N[C@@H](Cc1cc(-c2ccc(Cl)cc2Cl)cc(CP(=O)(O)O)c1O)C(=O)O`: the “robust z score of cilia incidence” value was -6.01 ± 3.6.

Consider `Nc1[nH]nc2nnc(-c3c(-c4ccccc4)nn4ccccc34)cc12`, for which the “robust z score of cilia incidence” value was -12 ± 1.9.

Regarding `CN(C)CCC=C1c2ccccc2COc2ccccc21` [Doxepin hydrochloride], the “robust z score of cilia incidence” value is -9.15 ± 5.
